Assay [1] deals with rat SK2 tagged with triple Myc (rSK2-Myc) (rat) (UniProt P70604). Kind of assay: co-IP; Cosm6 cells transfected with rSK1-HA and/or rSK2-Myc; solubilised protein precleared, immunoprecipitated overnight at 4°C with mouse anti-Myc (protein G sepharose) or rabbit anti-HA (protein A sepharose); pellets washed three times in RIPA buffer (150 mM NaCl, 1% Triton X-100, 0.5% sodium deoxycholate, 0.1% SDS, 50 mM Tris pH 8.0); immunoblotted with Myc or HA antibody. (In general: Immunoblotting shows a protein as a band on a membrane.)

Chains of the proteins cited; added tags and fusions are not shown.
UniProt P70604: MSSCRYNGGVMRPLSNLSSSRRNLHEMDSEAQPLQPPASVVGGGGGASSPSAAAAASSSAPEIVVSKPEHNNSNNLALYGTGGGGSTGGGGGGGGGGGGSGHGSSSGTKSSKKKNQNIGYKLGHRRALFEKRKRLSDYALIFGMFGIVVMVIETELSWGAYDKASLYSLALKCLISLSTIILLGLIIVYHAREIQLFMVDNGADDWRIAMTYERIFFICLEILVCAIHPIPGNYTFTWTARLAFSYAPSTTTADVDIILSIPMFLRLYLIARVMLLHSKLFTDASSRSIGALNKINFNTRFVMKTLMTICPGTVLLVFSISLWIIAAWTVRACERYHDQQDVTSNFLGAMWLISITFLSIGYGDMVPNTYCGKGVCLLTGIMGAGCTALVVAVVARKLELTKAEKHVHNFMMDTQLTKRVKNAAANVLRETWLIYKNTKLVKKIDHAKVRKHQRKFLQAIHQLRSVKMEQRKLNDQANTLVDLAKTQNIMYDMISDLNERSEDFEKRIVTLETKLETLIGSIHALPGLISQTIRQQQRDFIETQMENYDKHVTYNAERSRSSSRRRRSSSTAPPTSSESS
UniProt P70606: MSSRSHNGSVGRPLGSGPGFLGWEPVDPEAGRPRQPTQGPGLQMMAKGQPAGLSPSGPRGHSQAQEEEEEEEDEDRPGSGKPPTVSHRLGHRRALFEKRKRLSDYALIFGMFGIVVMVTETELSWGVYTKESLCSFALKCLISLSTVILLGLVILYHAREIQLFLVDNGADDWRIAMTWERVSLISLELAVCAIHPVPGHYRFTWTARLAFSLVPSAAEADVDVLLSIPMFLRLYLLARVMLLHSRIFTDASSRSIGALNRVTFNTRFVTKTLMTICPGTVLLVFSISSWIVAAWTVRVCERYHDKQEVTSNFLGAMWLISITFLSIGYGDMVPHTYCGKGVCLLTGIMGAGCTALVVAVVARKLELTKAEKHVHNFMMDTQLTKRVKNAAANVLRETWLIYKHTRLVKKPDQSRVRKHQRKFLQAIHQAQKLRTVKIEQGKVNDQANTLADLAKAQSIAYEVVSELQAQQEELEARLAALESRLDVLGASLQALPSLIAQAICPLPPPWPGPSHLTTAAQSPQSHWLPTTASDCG

In assay [2] the target is rat SK1 tagged with HA (rSK1-HA) (rat) (UniProt P70606). Kind of assay: SDS-PAGE and western blot (oligomer bands); lysates and biotinylated membrane fraction of transfected Cosm6 cells; samples boiled in SDS sample buffer with 100 mM DTT, 4-12% Bis-Tris gels, blots probed with Myc or HA antibody.
The target is the same in assay [3]. Nature of the assay: co-IP; Cosm6 cells transfected with rSK1-HA and/or rSK2-Myc; solubilised protein precleared, immunoprecipitated overnight at 4°C with mouse anti-Myc (protein G sepharose) or rabbit anti-HA (protein A sepharose); pellets washed three times in RIPA buffer (150 mM NaCl, 1% Triton X-100, 0.5% sodium deoxycholate, 0.1% SDS, 50 mM Tris pH 8.0); immunoblotted with Myc or HA antibody.

Assay [4] concerns the target rat SK2 tagged with triple Myc (rSK2-Myc) (rat) (UniProt P70604). Nature of the assay: SDS-PAGE and western blot (oligomer bands); lysates and biotinylated membrane fraction of transfected Cosm6 cells; samples boiled in SDS sample buffer with 100 mM DTT, 4-12% Bis-Tris gels, blots probed with Myc or HA antibody.

Results are given in words; binding and its absence hold for the method and conditions named. For some of these results: Binding seen in cells or lysates may run through a third protein. Some entries that bind do so weakly or less than the wild type.

Regarding “rat SK1 tagged with HA (rSK1-HA) (from UniProt P70606 1-536)”, the binding result in assay [1] and in assay [2] was “binds” in each case.
On to “rat SK2 tagged with triple Myc (rSK2-Myc) (from UniProt P70604 1-580)”, for which the binding entry in assay [3] and in assay [4] was “binds” each time.
